Results are given in words; binding and its absence hold for the method and conditions named. In cells and extracts the contact can be indirect. Some results given as binding are weak or reduced against the parent protein; the word gives no strength. Tags and fused reporters may be left off the sequences shown.
T1: human ACBD5 tagged with HIS6MYC (human) (UniProt Q5T8D3)
T1 sequence: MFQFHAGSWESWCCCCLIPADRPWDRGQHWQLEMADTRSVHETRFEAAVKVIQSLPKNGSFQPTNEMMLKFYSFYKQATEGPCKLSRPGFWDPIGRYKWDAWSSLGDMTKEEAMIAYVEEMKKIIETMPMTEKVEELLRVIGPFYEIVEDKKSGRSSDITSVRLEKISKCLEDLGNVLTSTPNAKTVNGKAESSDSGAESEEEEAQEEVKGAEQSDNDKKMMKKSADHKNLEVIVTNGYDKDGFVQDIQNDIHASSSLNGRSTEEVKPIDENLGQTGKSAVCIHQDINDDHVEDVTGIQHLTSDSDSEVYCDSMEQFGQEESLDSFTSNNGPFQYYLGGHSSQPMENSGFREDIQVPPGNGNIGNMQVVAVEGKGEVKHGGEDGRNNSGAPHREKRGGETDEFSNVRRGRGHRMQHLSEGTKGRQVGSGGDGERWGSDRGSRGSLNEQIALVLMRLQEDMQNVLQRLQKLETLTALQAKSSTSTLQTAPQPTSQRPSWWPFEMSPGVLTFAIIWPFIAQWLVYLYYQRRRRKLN

Chains of the proteins cited; added tags and fusions are not shown.
UniProt O95292: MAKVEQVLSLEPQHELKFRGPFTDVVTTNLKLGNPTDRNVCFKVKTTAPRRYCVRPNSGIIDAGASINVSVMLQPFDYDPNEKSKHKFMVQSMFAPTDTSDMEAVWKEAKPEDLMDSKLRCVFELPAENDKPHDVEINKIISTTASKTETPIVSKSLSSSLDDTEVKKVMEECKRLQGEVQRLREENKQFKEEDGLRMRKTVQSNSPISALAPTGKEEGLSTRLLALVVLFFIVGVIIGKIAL
UniProt O00429: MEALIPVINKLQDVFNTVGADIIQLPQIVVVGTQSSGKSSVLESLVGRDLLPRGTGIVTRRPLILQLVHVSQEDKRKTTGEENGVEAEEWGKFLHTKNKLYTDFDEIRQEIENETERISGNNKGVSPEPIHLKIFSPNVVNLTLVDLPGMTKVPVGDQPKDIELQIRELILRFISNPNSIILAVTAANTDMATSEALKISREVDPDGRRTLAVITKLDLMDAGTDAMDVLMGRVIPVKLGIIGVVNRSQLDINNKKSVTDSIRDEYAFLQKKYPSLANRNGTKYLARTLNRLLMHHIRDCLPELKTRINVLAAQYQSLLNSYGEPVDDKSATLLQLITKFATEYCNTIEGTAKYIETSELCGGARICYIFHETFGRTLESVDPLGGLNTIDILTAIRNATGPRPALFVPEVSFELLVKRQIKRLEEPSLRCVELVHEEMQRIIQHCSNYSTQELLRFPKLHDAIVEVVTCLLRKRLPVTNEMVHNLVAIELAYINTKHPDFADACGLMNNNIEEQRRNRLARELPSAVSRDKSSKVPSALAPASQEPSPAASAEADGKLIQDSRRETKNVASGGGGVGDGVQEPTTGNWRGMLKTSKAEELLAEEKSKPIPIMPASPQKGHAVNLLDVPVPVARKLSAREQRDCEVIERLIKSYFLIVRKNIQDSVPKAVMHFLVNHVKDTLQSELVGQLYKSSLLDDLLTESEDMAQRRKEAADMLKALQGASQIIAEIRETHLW

T2: human PEX11b tagged with HIS6MYC tags (human) (UniProt O96011)
T2 sequence: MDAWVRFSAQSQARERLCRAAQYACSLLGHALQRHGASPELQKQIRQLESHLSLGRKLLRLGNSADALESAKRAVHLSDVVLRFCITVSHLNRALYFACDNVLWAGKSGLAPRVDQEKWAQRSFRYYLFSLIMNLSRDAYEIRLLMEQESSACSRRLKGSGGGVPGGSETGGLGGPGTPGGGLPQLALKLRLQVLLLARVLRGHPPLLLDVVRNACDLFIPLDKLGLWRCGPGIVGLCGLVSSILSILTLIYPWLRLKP


Legend:
[1] = target: T1, human ACBD5 tagged with HIS6MYC (human); experiment: co-IP; mycACBD5 and GFP-VAPB overexpressed in HEK293T; lysis in 1% CHAPS in PBS; Myc-Trap agarose overnight at 4°C, four washes; blot; cells in control, Go6983 (5 μM, 24 h) or PKCD-mCherry overexpression conditions
[2] = target: T2, human PEX11b tagged with HIS6MYC tags (human); experiment: co-IP; mycPEX11b and an mCherry-tagged partner overexpressed in WT HEK293T; lysis in 1% CHAPS, 50 mM Tris-HCl pH 7.4, 150 mM NaCl; Myc-Trap agarose overnight at 4°C, four washes; blot; cells in control or Go6983 (5 μM, 24 h) conditions

| Molecule | binding [1] | binding [2] |
| --- | --- | --- |
| GFP-VAPB (from UniProt O95292 1-243) | binds | – |
| mCherry-DNM1L (from UniProt O00429 1-736) | – | binds |
| mCherry-PEX19 (protein, UniProt P40855 1-299) MAAAEEGCSVGAEADRELEELLESALDDFDKAKPSPAPPSTTTAPDASGPQKRSPGDTAKDALFASQEKFFQELFDSELASQATAEFEKAMKELAEEEPHLVEQFQKLSEAAGRVGSDMTSQQEFTSCLKETLSGLAKNATDLQNSSMSEEELTKAMEGLGMDEGDGEGNILPIMQSIMQNLLSKDVLYPSLKEITEKYPEWLQSHRESLPPEQFEKYQEQHSVMCKICEQFEAETPTDSETTQKARFEMVLDLMQQLQDLGHPPKELAGEMPPGLNFDLDALNLSGPPGASGEQCLIM | – | binds |
| mCherry-PEX11A (protein, UniProt O75192 1-247) MDAFTRFTNQTQGRDRLFRATQYTCMLLRYLLEPKAGKEKVVMKLKKLESSVSTGRKWFRLGNVVHAIQATEQSIHATDLVPRLCLTLANLNRVIYFICDTILWVRSVGLTSGINKEKWRTRAAHHYYYSLLLSLVRDLYEISLQMKRVTCDRAKKEKSASQDPLWFSVAEEETEWLQSFLLLLFRSLKQHPPLLLDTVKNLCDILNPLDQLGIYKSNPGIIGLGGLVSSIAGMITVAYPQMKLKTR | – | binds |
| human PEX11b tagged with HIS6MYC tags (protein, UniProt O96011 1-259) MDAWVRFSAQSQARERLCRAAQYACSLLGHALQRHGASPELQKQIRQLESHLSLGRKLLRLGNSADALESAKRAVHLSDVVLRFCITVSHLNRALYFACDNVLWAGKSGLAPRVDQEKWAQRSFRYYLFSLIMNLSRDAYEIRLLMEQESSACSRRLKGSGGGVPGGSETGGLGGPGTPGGGLPQLALKLRLQVLLLARVLRGHPPLLLDVVRNACDLFIPLDKLGLWRCGPGIVGLCGLVSSILSILTLIYPWLRLKP | – | binds |
| mCherry-PEX11G (protein, UniProt Q96HA9 1-241) MASLSGLASALESYRGRDRLIRVLGYCCQLVGGVLVEQCPARSEVGTRLLVVSTQLSHCRTILRLFDDLAMFVYTKQYGLGAQEEDAFVRCVSVLGNLADQLYYPCEHVAWAADARVLHVDSSRWWTLSTTLWALSLLLGVARSLWMLLKLRQRLRSPTAPFTSPLPRGKRRAMEAQMQSEALSLLSNLADLANAVHWLPRGVLWAGRFPPWLVGLMGTISSILSMYQAARAGGQAEATTP | – | binds |
| mCherry-MFF (protein, UniProt Q9GZY8 1-342) MSKGTSSDTSLGRVSRAAFPSPTAAEMAEISRIQYEMEYTEGISQRMRVPEKLKVAPPNADLEQGFQEGVPNASVIMQVPERIVVAGNNEDVSFSRPADLDLIQSTPFKPLALKTPPRVLTLSERPLDFLDLERPPTTPQNEEIRAVGRLKRERSMSENAVRQNGQLVRNDSLWHRSDSAPRNKISRFQAPISAPEYTVTPSPQQARVCPPHMLPEDGANLSSARGILSLIQSSTRRAYQQILDVLDENRRPVLRGGSAAATSNPHHDNVRYGISNIDTTIEGTSDDLTVVDAASLRRQIIKLNRRLQLLEEENKERAKREMVMYSITVAFWLLNSWLWFRR | – | binds |
| mCherry-GDAP1 (protein, UniProt Q8TB36 1-358) MAERQEEQRGSPPLRAEGKADAEVKLILYHWTHSFSSQKVRLVIAEKALKCEEHDVSLPLSEHNEPWFMRLNSTGEVPVLIHGENIICEATQIIDYLEQTFLDERTPRLMPDKESMYYPRVQHYRELLDSLPMDAYTHGCILHPELTVDSMIPAYATTRIRSQIGNTESELKKLAEENPDLQEAYIAKQKRLKSKLLDHDNVKYLKKILDELEKVLDQVETELQRRNEETPEEGQQPWLCGESFTLADVSLAVTLHRLKFLGFARRNWGNGKRPNLETYYERVLKRKTFNKVLGHVNNILISAVLPTAFRVAKKRAPKVLGTTLVVGLLAGVGYFAFMLFRKRLGSMILAFRPRPNYF | – | binds |

From article PMC12278821
